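A panel of P. falciparum strains inside erythrocytes is exposed to compounds for three days, then a DNA-binding dye reports the amount of parasite DNA. Each compound was titrated across a series from about 0.000037 to 29 µM. The number is the fitted AC50, the concentration giving a half-maximal change in signal; a lower value means higher potency, whether the curve shows a decrease or an increase. Calls follow the curve class and fit quality: every row here is inconclusive, covering signal-raising curves and weak, poorly fitted, partial or highest-dose-only inhibition curves.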

Values are in nM. All entries here are filed as inconclusive. Only part of the assay is shown, chiefly results filed as inconclusive. A potency from a partial, single-point or poor curve is only a rough figure.

{"compound": "CC1=C(C/C=C(\\C)CCCC(C)CCCC(C)CCCC(C)C)C(=O)c2ccccc2C1=O", "stereo": "stereo not shown", "tested on / at": "SC27B", "potency (nM)": "7080", "curve": "inhibitor, partial curve, poor fit"}
{"compound": "CC1=C(C/C=C(\\C)CCCC(C)CCCC(C)CCCC(C)C)C(=O)c2ccccc2C1=O", "stereo": "stereo not shown", "tested on / at": "PC15", "potency (nM)": "17782", "curve": "inhibitor, single point"}
{"compound": "CC1=C(C/C=C(\\C)CCCC(C)CCCC(C)CCCC(C)C)C(=O)c2ccccc2C1=O", "stereo": "stereo not shown", "tested on / at": "CP265", "potency (nM)": "4467", "curve": "inhibitor, partial curve"}
{"compound": "CC1=C(C/C=C(\\C)CCCC(C)CCCC(C)CCCC(C)C)C(=O)c2ccccc2C1=O", "stereo": "stereo not shown", "tested on / at": "ATS189", "potency (nM)": "11220", "curve": "inhibitor, single point"}
{"compound": "CC1=C(C/C=C(\\C)CCCC(C)CCCC(C)CCCC(C)C)C(=O)c2ccccc2C1=O", "stereo": "stereo not shown", "tested on / at": "AS120", "potency (nM)": "7943", "curve": "inhibitor, partial curve"}
{"compound": "CC1=C(C/C=C(\\C)CCCC(C)CCCC(C)CCCC(C)C)C(=O)c2ccccc2C1=O", "stereo": "stereo not shown", "tested on / at": "CP237", "potency (nM)": "11220", "curve": "inhibitor, single point"}
{"compound": "CC1=C(C/C=C(\\C)CCCC(C)CCCC(C)CCCC(C)C)C(=O)c2ccccc2C1=O", "stereo": "stereo not shown", "tested on / at": "AA1029", "potency (nM)": "2512", "curve": "inhibitor, full curve, poor fit"}
{"compound": "CC1=C(C/C=C(\\C)CCCC(C)CCCC(C)CCCC(C)C)C(=O)c2ccccc2C1=O", "stereo": "stereo not shown", "tested on / at": "TAB109", "potency (nM)": "3981", "curve": "inhibitor, partial curve"}
{"compound": "CN[C@@H]1C[C@@H](c2ccc(Cl)c(Cl)c2)c2ccccc21", "tested on / at": "CP268", "potency (nM)": "19011", "curve": "inhibitor, single point"}
{"compound": "CN[C@@H]1C[C@@H](c2ccc(Cl)c(Cl)c2)c2ccccc21", "tested on / at": "GB4", "potency (nM)": "13459", "curve": "inhibitor, partial curve"}
{"compound": "CN[C@@H]1C[C@@H](c2ccc(Cl)c(Cl)c2)c2ccccc21", "tested on / at": "CP266", "potency (nM)": "9528", "curve": "inhibitor, partial curve, poor fit"}
{"compound": "CN[C@@H]1C[C@@H](c2ccc(Cl)c(Cl)c2)c2ccccc21", "tested on / at": "CP203", "potency (nM)": "8492", "curve": "inhibitor, partial curve"}
{"compound": "CN[C@@H]1C[C@@H](c2ccc(Cl)c(Cl)c2)c2ccccc21", "tested on / at": "CP260", "potency (nM)": "10000", "curve": "inhibitor, single point"}
{"compound": "CN[C@@H]1C[C@@H](c2ccc(Cl)c(Cl)c2)c2ccccc21", "tested on / at": "P94_40", "potency (nM)": "11220", "curve": "inhibitor, single point"}
{"compound": "CN[C@@H]1C[C@@H](c2ccc(Cl)c(Cl)c2)c2ccccc21", "tested on / at": "DIV30", "potency (nM)": "6746", "curve": "inhibitor, partial curve"}
{"compound": "CN[C@@H]1C[C@@H](c2ccc(Cl)c(Cl)c2)c2ccccc21", "tested on / at": "CP215", "potency (nM)": "15101", "curve": "inhibitor, partial curve, poor fit"}
{"compound": "CN[C@@H]1C[C@@H](c2ccc(Cl)c(Cl)c2)c2ccccc21", "tested on / at": "ATS95", "potency (nM)": "17782", "curve": "inhibitor, single point"}
{"compound": "CN[C@@H]1C[C@@H](c2ccc(Cl)c(Cl)c2)c2ccccc21", "tested on / at": "CP335", "potency (nM)": "4776", "curve": "inhibitor, partial curve"}
{"compound": "CN[C@@H]1C[C@@H](c2ccc(Cl)c(Cl)c2)c2ccccc21", "tested on / at": "P93_24", "potency (nM)": "11220", "curve": "inhibitor, single point"}
{"compound": "CN[C@@H]1C[C@@H](c2ccc(Cl)c(Cl)c2)c2ccccc21", "tested on / at": "CP247", "potency (nM)": "5012", "curve": "inhibitor, partial curve, poor fit"}
{"compound": "CN[C@@H]1C[C@@H](c2ccc(Cl)c(Cl)c2)c2ccccc21", "tested on / at": "N140", "potency (nM)": "12589", "curve": "inhibitor, partial curve"}
{"compound": "CN[C@@H]1C[C@@H](c2ccc(Cl)c(Cl)c2)c2ccccc21", "tested on / at": "PC15", "potency (nM)": "7943", "curve": "inhibitor, partial curve"}
{"compound": "CN[C@@H]1C[C@@H](c2ccc(Cl)c(Cl)c2)c2ccccc21", "tested on / at": "HB3", "potency (nM)": "14125", "curve": "inhibitor, single point"}
{"compound": "CN[C@@H]1C[C@@H](c2ccc(Cl)c(Cl)c2)c2ccccc21", "tested on / at": "CP211", "potency (nM)": "21331", "curve": "inhibitor, partial curve, poor fit"}

The last 2 entries again:

Compound,tested on / at,potency (nM),curve
CN[C@@H]1C[C@@H](c2ccc(Cl)c(Cl)c2)c2ccccc21,HB3,14125,"inhibitor, single point"
CN[C@@H]1C[C@@H](c2ccc(Cl)c(Cl)c2)c2ccccc21,CP211,21331,"inhibitor, partial curve, poor fit"

From PubChem BioAssay record AID504749 (NCATS, 2011).